Results published in patent publication US20120046363A1, “DOCOSAHEXAENOIC ACID FOR THE TREATMENT OF HEART FAILURE” (University of Maryland, Baltimore, priority 2009, published 2012).

Assay: Body mass, organ mass and mitochondrial yield after dietary supplementation (Series 1)
Format: in vivo, male Wistar rats
Settings: 8 weeks, mean ± SEM

CC/C=C\C/C=C\C/C=C\C/C=C\C/C=C\CCCC(=O)O [EPA, eicosapentanoic acid]
Biatrial Mass (2.5% of caloric intake): 0.09 ± 0.02 g | LV Mass (2.5% of caloric intake): 0.89 ± 0.07 g | Liver Mass (2.5% of caloric intake): 15.5 ± 1.5 g | RV Mass (2.5% of caloric intake): 0.29 ± 0.03 g | Terminal Body Mass (diet with DHA or EPA at 2.5% of total caloric intake): 486 ± 29 g
